In PMC7718874, “Coupling of H3K27me3 recognition with transcriptional repression through the BAH-PHD-CPL2 complex in Arabidopsis” (Nature Communications, 2020):
Results are given in words; binding and its absence hold for the method and conditions named. In cells and extracts the contact can be indirect. Here binding means that the protein was enriched with, or labelled near, the bait; the list need not be complete. No binding means not detected with the bait. Where a sequence is shown, tags or fusion partners need not be part of it.

Assays:
[1] = target: T1, AIPP2, epitope-tagged in transgenic Arabidopsis (Arabidopsis) (UniProt F4IYH6); experiment: affinity purification with mass spectrometry; total proteins of inflorescence tissues of epitope-tagged transgenic plants in IP buffer (50 mM Tris-HCl pH 7.6, 150 mM NaCl, 5 mM MgCl2, 10% glycerol, 0.1% NP-40, 0.5 mM DTT), precipitated with anti-Flag or anti-Myc antibodies 2 h at 4 °C, five washes, MS
T1 sequence: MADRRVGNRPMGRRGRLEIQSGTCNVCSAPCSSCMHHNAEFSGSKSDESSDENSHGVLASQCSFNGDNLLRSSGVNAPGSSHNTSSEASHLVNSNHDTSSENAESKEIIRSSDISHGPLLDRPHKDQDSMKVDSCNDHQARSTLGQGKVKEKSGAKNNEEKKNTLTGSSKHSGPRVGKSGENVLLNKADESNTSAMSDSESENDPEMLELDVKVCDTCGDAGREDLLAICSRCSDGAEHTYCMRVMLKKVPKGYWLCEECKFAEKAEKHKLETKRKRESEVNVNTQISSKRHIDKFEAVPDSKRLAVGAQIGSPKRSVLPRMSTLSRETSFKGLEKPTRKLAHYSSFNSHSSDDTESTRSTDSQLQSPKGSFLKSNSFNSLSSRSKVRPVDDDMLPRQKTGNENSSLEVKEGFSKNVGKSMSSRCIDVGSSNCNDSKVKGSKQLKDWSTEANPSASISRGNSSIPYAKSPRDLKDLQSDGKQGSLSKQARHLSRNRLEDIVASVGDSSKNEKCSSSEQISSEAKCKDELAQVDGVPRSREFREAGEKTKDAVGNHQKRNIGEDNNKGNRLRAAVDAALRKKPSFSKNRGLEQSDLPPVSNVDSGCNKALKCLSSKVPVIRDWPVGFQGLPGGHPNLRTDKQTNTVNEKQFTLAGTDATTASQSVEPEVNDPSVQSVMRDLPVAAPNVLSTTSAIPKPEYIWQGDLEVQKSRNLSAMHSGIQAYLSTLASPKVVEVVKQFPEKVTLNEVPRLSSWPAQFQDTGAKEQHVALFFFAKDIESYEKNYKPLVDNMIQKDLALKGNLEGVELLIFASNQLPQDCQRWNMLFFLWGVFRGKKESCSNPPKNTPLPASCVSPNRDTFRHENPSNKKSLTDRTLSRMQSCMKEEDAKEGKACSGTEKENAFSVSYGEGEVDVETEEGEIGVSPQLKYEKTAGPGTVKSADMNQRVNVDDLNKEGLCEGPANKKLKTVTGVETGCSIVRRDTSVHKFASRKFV

[2] = target: T2, PARALOG OF AIPP2 (PAIPP2), epitope-tagged in transgenic Arabidopsis (Arabidopsis) (UniProt F4KE59); experiment: as above
T2 sequence: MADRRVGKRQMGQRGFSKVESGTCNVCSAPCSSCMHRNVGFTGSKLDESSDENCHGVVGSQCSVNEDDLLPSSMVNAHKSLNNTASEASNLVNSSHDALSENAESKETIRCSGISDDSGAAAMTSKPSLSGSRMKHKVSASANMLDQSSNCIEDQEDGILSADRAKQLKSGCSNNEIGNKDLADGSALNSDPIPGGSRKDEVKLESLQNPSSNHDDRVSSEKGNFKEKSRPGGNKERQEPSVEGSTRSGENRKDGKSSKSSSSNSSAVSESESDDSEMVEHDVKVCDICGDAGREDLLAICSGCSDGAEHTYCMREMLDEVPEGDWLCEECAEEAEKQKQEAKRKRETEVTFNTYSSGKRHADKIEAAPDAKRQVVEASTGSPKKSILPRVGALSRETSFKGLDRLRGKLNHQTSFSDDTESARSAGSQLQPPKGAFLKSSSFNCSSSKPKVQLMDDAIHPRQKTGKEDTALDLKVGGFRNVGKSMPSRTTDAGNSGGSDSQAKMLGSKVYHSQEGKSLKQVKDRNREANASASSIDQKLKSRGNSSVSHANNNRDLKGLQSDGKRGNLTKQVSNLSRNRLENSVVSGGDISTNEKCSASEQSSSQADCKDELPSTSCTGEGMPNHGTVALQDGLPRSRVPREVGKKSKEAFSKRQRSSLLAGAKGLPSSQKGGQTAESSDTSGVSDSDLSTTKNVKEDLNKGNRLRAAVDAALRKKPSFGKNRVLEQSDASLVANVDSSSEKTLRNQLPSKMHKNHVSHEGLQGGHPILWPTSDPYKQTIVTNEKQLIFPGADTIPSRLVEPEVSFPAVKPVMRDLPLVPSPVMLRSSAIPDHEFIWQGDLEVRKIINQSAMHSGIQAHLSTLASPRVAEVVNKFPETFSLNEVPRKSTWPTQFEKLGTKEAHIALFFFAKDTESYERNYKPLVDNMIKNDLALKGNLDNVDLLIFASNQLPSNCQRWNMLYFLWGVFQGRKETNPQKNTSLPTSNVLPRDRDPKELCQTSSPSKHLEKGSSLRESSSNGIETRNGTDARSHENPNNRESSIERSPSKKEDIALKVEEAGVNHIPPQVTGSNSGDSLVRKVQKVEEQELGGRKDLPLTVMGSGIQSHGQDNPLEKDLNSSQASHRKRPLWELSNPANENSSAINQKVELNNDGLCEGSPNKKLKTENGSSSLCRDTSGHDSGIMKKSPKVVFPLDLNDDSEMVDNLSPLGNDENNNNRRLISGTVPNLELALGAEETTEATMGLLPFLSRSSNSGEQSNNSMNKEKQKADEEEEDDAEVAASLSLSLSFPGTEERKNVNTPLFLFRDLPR

binding [1]: no binding
binding [2]: no binding
B1: EMBRYONIC FLOWER 1 (EMF1) (protein, UniProt Q9LYD9 1-1096)
chain: MGSSIKINSISIDLAGAANEIDMVKCDHFSMRGFVAETRERDLRKCWPFSEESVSLVDQQSYTLPTLSVPKFRWWHCMSCIKDIDAHGPKDCGLHSNSKAIGNSSVIESKSKFNSLTIIDHEKEKKTDIADNAIEEKVGVNCENDDQTATTFLKKARGRPMGASNVRSKSRKLVSPEQVGNNRSKEKLNKPSMDISSWKEKQNVDQAVTTFGSSEIAGVVEDTPPKATKNHKGIRGLMECDNGSSESINLAMSGLQRRKSRKVRLLSELLGNTKTSGGSNIRKEESALKKESVRGRKRKLLPENNYVSRILSTMGATSENASKSCDSDQGNSESTDSGFDRTPFKGKQRNRRFQVVDEFVPSLPCETSQEGIKEHDADPSKRSTPAHSLFTGNDSVPCPPGTQRTERKLSLPKKKTKKPVIDNGKSTVISFSNGIDGSQVNSHTGPSMNTVSQTRDLLNGKRVGGLFDNRLASDGYFRKYLSQVNDKPITSLHLQDNDYVRSRDAEPNCLRDFSSSSKSSSGGWLRTGVDIVDFRNNNHNTNRSSFSNLKLRYPPSSTEVADLSRVLQKDASGADRKGKTVMVQEHHGAPRSQSHDRKETTTEEQNNDDIPMEIVELMAKNQYERCLPDKEEDVSNKQPSQETAHKSKNALLIDLNETYDNGISLEDNNTSRPPKPCSSNARREEHFPMGRQQNSHDFFPISQPYVPSPFGIFPPTQENRASSIRFSGHNCQWLGNLPTVGNQNPSPSSFRVLRACDTCQSVPNQYREASHPIWPSSMIPPQSQYKPVSLNINQSTNPGTLSQASNNENTWNLNFVAANGKQKCGPNPEFSFGCKHAAGVSSSSSRPIDNFSSESSIPALHLLSLLDPRLRSTTPADQHGNTKFTKRHFPPANQSKEFIELQTGDSSKSAYSTKQIPFDLYSKRFTQEPSRKSFPITPPIGTSSLSFQNASWSPHHQEKKTKRKDTFAPVYNTHEKPVFASSNDQAKFQLLGASNSMMLPLKFHMTDKEKKQKRKAESCNNNASAGPVKNSSGPIVCSVNRNPADFTIPEPGNVYMLTGEHLKVRKRTTFKKKPAVCKQDAMKQTKKPVCPPTQNA
